# The list shows a part of the results. Shown are side measurements of this screen, not its main read-out; they come without a call. Compounds called inactive in the main read-out are mostly missing here. The note in brackets gives the kind of curve behind each potency; many fits are weak.
# Experiment: qHTS Assay for Lipid Storage Modulators in Drosophila S3 Cells;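 on cell number change: cells counted by Cell Tracker Red CMTPX staining in the red channel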
# Conditions: BODIPY lipid droplet fluorescence, 18-24 h; for cell number change: measured here: cell count max response, cells fed with added oleic acid
# Procedure, shortened: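 Drosophila S3 cells loaded with oleic acid (400 uM, as added) and compounds at several concentrations; lipid droplets imaged by 488-nm laser-scanning cytometry, 500–530 nm intensity and object ratio to cell channel. Percent activity normalized to 20 uM Triacsin C.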
# [1] = measured here: lipid fluorescence (Fed channel) AC50, cells fed with added oleic acid
# [2] = measured here: cell number channel AC50, cells fed with added oleic acid
SMILES,cell number change [%],AC50 [1],AC50 [2]
Cc1cccc(CN2C3=NCCCN3c3ccccc32)c1,16.3,–,–
CCOC(=O)C1CCCN(C(=O)c2cc3c(OC)c(OC)c(OC)cc3[nH]2)C1 (configuration not stated),10.3,–,–
COc1cc(CNCCc2ccc(F)cc2)ccc1OCc1ccc(Cl)nc1,-25,"5.8 µM [rising, single point]",–
CC(=O)N1c2ccc(Cl)cc2C2C=CCC2C1c1cccc2ccccc12 (configuration not stated),-20.3,–,–
O=C(COC(=O)c1ccc(Br)o1)NCCNC(=O)COC(=O)c1ccc(Br)o1,23.1,"29.1 µM [rising, single point]",–
COc1cc2nc(Nc3ccc(F)cc3)nc(N)c2cc1OC,4.17,–,"6.51 µM [rising, single point]"
O=C(CN1C(=O)CCC1=O)c1ccc(-c2ccccc2)cc1,-20.9,"0.231 µM [falling, full curve, poor fit]",–
Cc1cc(OCC(=O)NC(C)c2ccccc2)ccc1[N+](=O)[O-] (configuration not stated),29.2,–,"0.517 µM [rising, full curve, poor fit]"
COC(=O)c1ccc(CSc2nc3ccccc3c(=O)n2-c2cccc(OC)c2)o1,31.6,"0.092 µM [rising, full curve]","23.1 µM [rising, single point]"
O=C(CSc1ccsc1[N+](=O)[O-])NCCc1ccc(Cl)cc1,-25.5,"18.4 µM [falling, partial curve, poor fit]","2.06 µM [falling, full curve, poor fit]"
c1ccc(Nc2nc(Nc3ccccc3)nc(N3CCNCC3)n2)cc1,-3.97,"1.84 µM [rising, partial curve]",–
CCOc1cc(C(=O)Nc2ccccc2N2CCOCC2)ccc1OCC(=O)N1CCCCC1,-41,"29.1 µM [falling, partial curve, poor fit]","0.103 µM [falling, full curve]"
CCC(C)c1ccc(C(C)NC(=S)NCc2ccc(F)cc2)cc1 (configuration not stated),-39.6,–,"32.6 µM [falling, single point]"
CCOC(=O)NC(=O)CSc1ccccn1,-15.2,"4.11 µM [falling, single point]",–
CCOC(=O)c1c(C)nc(-c2ccccc2)nc1NC(C)=O,-16.4,"29.1 µM [rising, single point]",–
CC1=NCCN1S(=O)(=O)c1cccc([N+](=O)[O-])c1,-2.19,"0.0058 µM [falling, full curve, poor fit]",–
CC(C)(C)c1cn(-c2ccc(F)cc2)c(=S)[nH]1,-7.82,"3.26 µM [falling, full curve]","6.51 µM [falling, single point]"
Oc1ccc(Br)cc1/C=N/Nc1ccccn1,-50.4,–,"4.61 µM [falling, full curve]"
COc1nc(NC(=O)c2ccc(F)cc2)nc(OC)c1-c1ccccc1,4.5,–,–
Cc1cc(=O)oc2c(C)c(OC(C)C(=O)NCC(O)c3ccccc3)ccc12 (configuration not stated),13.4,–,–
CN(c1ccccc1)S(=O)(=O)c1ccc(NC(=S)NC(=O)C2CC2)cc1,8.24,"23.1 µM [rising, single point]",–

SMILES,cell number change [%],AC50 [1],AC50 [2]
O=C(Nc1cccnc1)c1cc(-c2cccc(Br)c2)nc2ccccc12,29,"6.51 µM [falling, partial curve]","0.411 µM [rising, full curve, poor fit]"
CCOC(=O)CNC(=O)CNC(=O)c1ccc(OC)cc1,32.3,–,"0.651 µM [rising, partial curve, poor fit]"
O=C(Nc1ccc2c(c1)ncn2C1CCCCC1)c1ccco1,39.1,"6.51 µM [rising, single point]","8.2 µM [rising, partial curve]"
CC(C)(C)c1nnc2sc(SCC(=O)NCc3ccco3)nn2c1=O,8.27,"0.0731 µM [rising, full curve, poor fit]",–
CCn1c(COc2cccc(OC)c2)nnc1SCC(=O)NC1CCCC1,10.5,"0.13 µM [rising, full curve]",–
COc1nc(OC)nc(N2CCC(C(=O)NC3CCCCCC3)CC2)n1,-34.6,–,"7.31 µM [falling, partial curve]"
CCC(=O)N1CCN(c2ccc(NC(=S)NC(=O)c3cc4ccccc4o3)cc2)CC1,-23.7,–,"4.61 µM [falling, full curve, poor fit]"
COc1c(Cl)cc(Cl)cc1CNCCNCCO,46.4,–,"25.9 µM [rising, single point]"
COc1cccc(N/C(SCc2cccc([N+](=O)[O-])c2)=C(/C#N)C(=O)NCc2cccs2)c1,–,"11.6 µM [rising, partial curve]",–
O=C(COC(=O)c1cc(S(=O)(=O)N2CCOCC2)ccc1Cl)Nc1ccccc1Cl,5.38,"0.411 µM [falling, full curve, poor fit]",–
O=C(O)/C=C/C(=O)Nc1ccc(SC(F)(F)C(F)(F)C(F)(F)F)cc1,-92,–,"29.1 µM [falling, single point]"
COc1ccc(CCNC(=O)C2CCN(C(=O)c3ccc(Br)cc3)CC2)cc1OC,-17.5,"18.4 µM [falling, single point]",–
Cc1cc(SC(C)C(=O)NCC(=O)Nc2ccc(F)c(F)c2F)nc2ccccc12 (configuration not stated),-21.5,"3.26 µM [falling, single point]","2.91 µM [falling, full curve, poor fit]"
Cc1ccc(C(=O)N/N=C/C=C/c2ccccc2)cc1,0.124,–,–
COc1cc(NS(=O)(=O)c2ccc(N)cc2)ncn1,-11.1,–,"0.82 µM [rising, partial curve]"
CC1CCN(Cc2c(C(=O)N/N=C/c3cccc(C(F)(F)F)c3)nnn2-c2nonc2N)CC1,71.2,–,"29.1 µM [rising, single point]"
COc1ccc(CCNC(=O)CC(NS(=O)(=O)c2ccc(NC(C)=O)cc2)C(C)C)cc1OC (configuration not stated),19.3,–,–
CC(C)(C)Cc1nnc(NC(=O)c2ccco2)s1,–,"29.1 µM [rising, single point]",–
COCCCNC(=O)COc1ccc(Br)cc1Cl,-42.5,"29.1 µM [falling, single point]",–
COc1ccccc1C1/C(=C(\O)c2ccc3c(c2)OCCO3)C(=O)C(=O)N1Cc1cccnc1 (configuration not stated),10.7,–,–
COc1ccc(Cl)cc1NC(=O)CSc1nc2ccsc2c(=O)n1CC1CCC(C(=O)O)CC1 (configuration not stated),21.2,–,–

SMILES,cell number change [%],AC50 [1],AC50 [2]
CCOc1ccc(CNC(=O)C2CCN(c3nn4c(=O)cc(C)nc4s3)CC2)cc1,8.56,"29.1 µM [rising, single point]",–
O=C(O)CCc1ccc(S(=O)(=O)Nc2ccc(OCc3ccccc3)cc2)cc1,-36.5,–,"9.2 µM [falling, partial curve, poor fit]"
COc1ccccc1N1C(=O)CC(N2CCN(c3ccc(Cl)cc3)CC2)C1=O (configuration not stated),18.2,–,–
C=CCOc1cc(C)nc(-c2ccccc2O)n1,122,"5.8 µM [rising, partial curve]","4.61 µM [rising, partial curve]"
CN1CCN(S(=O)(=O)c2ccc(NC(=O)c3cccc(F)c3)cc2)CC1,2.91,"9.2 µM [rising, partial curve]","0.00411 µM [rising, full curve, poor fit]"
O=C(NCc1ccco1)c1cc(S(=O)(=O)N2CCCc3ccccc32)ccc1Cl,-64.7,–,"23.1 µM [falling, partial curve, poor fit]"
O=C(CSCc1ccccc1)Nc1ccccc1C(=O)Nc1ccc(C(=O)O)cc1,0.351,–,–
COc1cc(CC(CC(=O)O)CC(C)OCc2ccccc2)cc(OC)c1 (configuration not stated),–,"18.4 µM [rising, single point]",–
O=C(COC(=O)CNS(=O)(=O)c1cccc(Br)c1)Nc1ccccc1Sc1ccccc1,5.34,–,"0.103 µM [rising, full curve, poor fit]"
COc1cc(CNC(=O)OCC(C)C)cc(OC)c1OC,21.5,"0.103 µM [falling, full curve, poor fit]",–
Cc1nc2sc(C(c3cccs3)N3CCN(C(=O)c4ccco4)CC3)c(O)n2n1 (configuration not stated),–,"6.51 µM [falling, single point]",–
O=C(CN1C(=O)S/C(=C\c2ccccc2)C1=O)Nc1cc([N+](=O)[O-])ccc1O,-13.8,–,–
CCOCCCNC(=O)C(NC(=O)c1ccc2c(c1)OCO2)c1ccc(Cl)cc1 (configuration not stated),-7.33,"0.82 µM [falling, full curve, poor fit]",–
CC(C)C(=O)Nc1nnc(SCC(=O)NC2CC2)s1,7.96,–,–
O=C(CNC(=O)C1CCCCC1)NCCCO,17.3,"29.1 µM [rising, single point]",–
COc1ccc(C)cc1Nc1n[n+](-c2ccccc2)c(-c2cc([N+](=O)[O-])cc(OC)c2O)s1,71.5,"29.1 µM [falling, single point]","25.9 µM [rising, partial curve]"
COCCNC(=O)Cn1c(=O)oc2cc(S(=O)(=O)N3CC(C)CC(C)C3)ccc21 (configuration not stated),27.4,–,–
CC(=O)NCC(=O)OCc1ccc([N+](=O)[O-])cc1,-5.22,"4.11 µM [falling, partial curve, poor fit]",–
Cc1ccc(Oc2ccccc2NC(=O)C2=COCCO2)cc1,-9.19,–,–
COc1ccc(-c2nnc(SC)o2)c(OC)c1,-18.1,"1.16 µM [rising, single point]",–
Cc1ccccc1Cn1nc(C)c(NC(=O)C2c3ccccc3Oc3ccccc32)c1C,12.7,"2.59 µM [falling, partial curve]",–

# Filtered by structure: those above containing an NH in an aromatic ring.
SMILES,cell number change [%],AC50 [1],AC50 [2]
CCOC(=O)C1CCCN(C(=O)c2cc3c(OC)c(OC)c(OC)cc3[nH]2)C1 (configuration not stated),10.3,–,–
CC(C)(C)c1cn(-c2ccc(F)cc2)c(=S)[nH]1,-7.82,"3.26 µM [falling, full curve]","6.51 µM [falling, single point]"

# Source: PubChem BioAssay AID2685 (National Center for Advancing Translational Sciences (NCATS), 2010)
